Data as given in PubChem BioAssay AID1159578 (Peter MacCallum Cancer Centre, 2015).

- Screen: 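Knock-downs that alter how fast lymphatic endothelial cells migrate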 (primary screen)
- System: human lymphatic endothelial cells
- Reagents: siRNA pool against human genes, 40 nM
- Duration: 48 h after transfection
- Measurement: 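Cells stained with dye and imaged after a scratch; covered wound area and nuclei counted, duplicates averaged, migration set against mock wells and turned into a robust z-score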
- Reading the numbers: migration robust z-score: higher = faster migration into the scratch; migration relative to mock: higher = more scratch area covered than mock; nuclei per well: higher = more cells in the well
- Active means: 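Pools averaging fewer than 3300 nuclei are never called; remaining pools count as changed when migration robust z lies outside -2 to 2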
- Meaning of the calls: active = migration changed; inactive = no migration change, or too few cells
The deposit covers about 18,000 reagents; below is an unselected part. Over the whole deposit, about 1,030 (5.7%) were called active. 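Inactive calls also include pools with fewer than 3300 nuclei, whose migration was not assessed.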 Raw values vary from plate to plate and are shown uncorrected.

gene knocked down	migration robust z-score	migration class with cell-count check	migration relative to mock	nuclei per well, duplicate mean	Call
BABAM1	-0.06	migration z between -2 and 2; enough cells	0.87	5368	inactive
RETNLB	0.48	migration z between -2 and 2; enough cells	1.01	5294	inactive
PRSS54	0.75	migration z between -2 and 2; enough cells	0.95	6320	inactive
CA9	-0.18	migration z between -2 and 2; enough cells	0.84	6372	inactive
EPC1	0.31	migration z between -2 and 2; enough cells	0.86	6356	inactive
PI3	-1.56	migration z between -2 and 2; enough cells	0.48	4632	inactive
NELFB	-1.23	migration z between -2 and 2; enough cells	0.56	3710	inactive
USP5	0.36	migration z between -2 and 2; enough cells	0.88	5489	inactive
PRF1	-1.04	migration z between -2 and 2; enough cells	0.61	5304	inactive
HMGA1	0.21	migration z between -2 and 2; enough cells	0.84	5104	inactive
AP4E1	0.02	migration z between -2 and 2; enough cells	0.9	5661	inactive
BBX	-0.54	migration z between -2 and 2; enough cells	0.74	4920	inactive
CIB2	-3.84	under 3300 nuclei; migration not judged	0.06	2970	inactive
PLS1	-0.89	migration z between -2 and 2; enough cells	0.66	5684	inactive
ZNF621	0.71	migration z between -2 and 2; enough cells	1.07	5832	inactive
USP24	0	migration z between -2 and 2; enough cells	0.8	5539	inactive
MST1	0.96	migration z between -2 and 2; enough cells	0.99	5204	inactive
LTB4R	-1.74	migration z between -2 and 2; enough cells	0.47	5015	inactive
FAM91A1	-0.12	migration z between -2 and 2; enough cells	0.85	6194	inactive
OTP	0.28	migration z between -2 and 2; enough cells	0.97	5656	inactive
RYK	0.24	migration z between -2 and 2; enough cells	0.85	5812	inactive
VIM	0.43	migration z between -2 and 2; enough cells	1	4948	inactive
KLHDC8A	-1.2	migration z between -2 and 2; enough cells	0.57	3994	inactive
WDR46	-0.9	migration z between -2 and 2; enough cells	0.65	6280	inactive
EMP2	-0.5	migration z between -2 and 2; enough cells	0.76	5832	inactive
RPH3AL	-0.44	migration z between -2 and 2; enough cells	0.77	7435	inactive
TREML2	0.68	migration z between -2 and 2; enough cells	1.06	5917	inactive
GTPBP2	-1.25	migration z between -2 and 2; enough cells	0.57	4396	inactive
OR2A2	-0.92	migration z between -2 and 2; enough cells	0.65	5926	inactive
NHP2	0.42	migration z between -2 and 2; enough cells	0.99	4888	inactive
MAGEB18	0.78	migration z between -2 and 2; enough cells	1.08	6535	inactive
LMO3	1.3	migration z between -2 and 2; enough cells	1.22	5854	inactive
FKTN	-1.53	migration z between -2 and 2; enough cells	0.49	5696	inactive
KAT8	-1.27	migration z between -2 and 2; enough cells	0.56	4123	inactive
RSF1	0.57	migration z between -2 and 2; enough cells	0.92	6490	inactive
AIRE	0.5	migration z between -2 and 2; enough cells	0.9	6230	inactive
C1orf50	-0.4	migration z between -2 and 2; enough cells	0.78	5424	inactive

A stretch taken from the entries so far:
gene knocked down	migration robust z-score	migration class with cell-count check	migration relative to mock	nuclei per well, duplicate mean	Call
BBX	-0.54	migration z between -2 and 2; enough cells	0.74	4920	inactive
CIB2	-3.84	under 3300 nuclei; migration not judged	0.06	2970	inactive
PLS1	-0.89	migration z between -2 and 2; enough cells	0.66	5684	inactive
ZNF621	0.71	migration z between -2 and 2; enough cells	1.07	5832	inactive
USP24	0	migration z between -2 and 2; enough cells	0.8	5539	inactive
MST1	0.96	migration z between -2 and 2; enough cells	0.99	5204	inactive
LTB4R	-1.74	migration z between -2 and 2; enough cells	0.47	5015	inactive
FAM91A1	-0.12	migration z between -2 and 2; enough cells	0.85	6194	inactive
OTP	0.28	migration z between -2 and 2; enough cells	0.97	5656	inactive
RYK	0.24	migration z between -2 and 2; enough cells	0.85	5812	inactive
VIM	0.43	migration z between -2 and 2; enough cells	1	4948	inactive

The listing continues:
gene knocked down	migration robust z-score	migration class with cell-count check	migration relative to mock	nuclei per well, duplicate mean	Call
STX7	0.66	migration z between -2 and 2; enough cells	1.06	5578	inactive
S1PR1	-2.36	migration z below -2; enough cells	0.35	5290	active
SPRR2G	0.26	migration z between -2 and 2; enough cells	0.96	6760	inactive
CYTH4	1.15	migration z between -2 and 2; enough cells	1.19	6083	inactive
CLIC6	0.39	migration z between -2 and 2; enough cells	0.88	5443	inactive
UQCRH	0.52	migration z between -2 and 2; enough cells	0.9	6438	inactive
PGBDF	-0.06	migration z between -2 and 2; enough cells	0.87	6530	inactive
PIGM	0.34	migration z between -2 and 2; enough cells	0.87	5541	inactive
WDR11	-0.24	migration z between -2 and 2; enough cells	0.82	4409	inactive
ALG11	0.44	migration z between -2 and 2; enough cells	1	5161	inactive
DLG1	-0.16	migration z between -2 and 2; enough cells	0.78	6600	inactive
SUSD4	-2.42	migration z below -2; enough cells	0.26	4037	active
BST1	-0.16	migration z between -2 and 2; enough cells	0.78	4632	inactive
SLC16A3	-0.83	migration z between -2 and 2; enough cells	0.64	5281	inactive
FNBP4	0.19	migration z between -2 and 2; enough cells	0.94	5336	inactive
NEFH	0.2	migration z between -2 and 2; enough cells	0.94	5576	inactive
LEO1	-0.67	migration z between -2 and 2; enough cells	0.71	4347	inactive
NID2	1.58	migration z between -2 and 2; enough cells	1.29	6462	inactive
DNAAF6	-0.2	migration z between -2 and 2; enough cells	0.84	6517	inactive
ABCB4	-1.27	migration z between -2 and 2; enough cells	0.56	6326	inactive
C7orf33	-0.15	migration z between -2 and 2; enough cells	0.84	4948	inactive
TARP	-0.89	migration z between -2 and 2; enough cells	0.66	5817	inactive
PACRG	2.2	migration z above 2; enough cells	1.46	5240	active
CCNG1	0.62	migration z between -2 and 2; enough cells	1.04	6736	inactive
STXBP4	0.1	migration z between -2 and 2; enough cells	0.92	7333	inactive
UTP15	-0.24	migration z between -2 and 2; enough cells	0.82	5246	inactive
ASB9	-0.34	migration z between -2 and 2; enough cells	0.74	5644	inactive
IGFLR1	0.43	migration z between -2 and 2; enough cells	1	6951	inactive
LRRC18	2.52	migration z above 2; enough cells	1.53	6622	active
NDRG4	1.8	migration z between -2 and 2; enough cells	1.35	5391	inactive
TLCD3A	-0.76	migration z between -2 and 2; enough cells	0.68	4320	inactive
MAP1LC3B	1.15	migration z between -2 and 2; enough cells	1.18	5058	inactive
ATAD1	0.1	migration z between -2 and 2; enough cells	0.82	5766	inactive
ARF6	-1.04	migration z between -2 and 2; enough cells	0.6	5172	inactive
ETFB	0.8	migration z between -2 and 2; enough cells	1.1	6377	inactive
DNAJC18	-1.35	migration z between -2 and 2; enough cells	0.54	4362	inactive
